PubChem BioAssay AID686943 | Drosophila RNAi Screening Center – 2013
The deposit covers about 23,000 reagents; below is an unselected part of those with a known target gene and a result. 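Extra replicates exist only for a retested subset of genes; insulin dose and duration not given; both raised and lowered dpERK matter.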 A plus sign joins genes that one reagent is predicted to hit. Not given: the amount of reagent, the time to read-out.

Test: 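Search across the genome for regulators of signalling from receptor tyrosine kinase to ERK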 (primary screen)
System: Drosophila S2R+ haemocyte-like cells expressing YFP-tagged ERK (Rolled)
Knock-down reagent: long dsRNA against Drosophila genes
Challenge: insulin stimulation versus unstimulated cells; dose and duration not given
Measurement: 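Antibody staining for doubly phosphorylated ERK divided by ERK-YFP signal, as plate z-scores, in insulin-treated and untreated cells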
Reading the numbers: replicate 1, z-score of dpERK with insulin and replicate 2, z-score of dpERK with insulin: higher = more active ERK per ERK-YFP after insulin; replicate 1, z-score of dpERK under basal conditions: higher = more basal active ERK per ERK-YFP; replicate 1, z-score of ERK-YFP with insulin: higher = more YFP-tagged ERK signal

| replicate 1, z-score of dpERK with insulin | replicate 2, z-score of dpERK with insulin | replicate 1, z-score of dpERK under basal conditions | replicate 1, z-score of ERK-YFP with insulin | gene | amplicon |
| --- | --- | --- | --- | --- | --- |
| 0.14 | -1.06 | -0.54 | -0.09 | CG34030 | DRSC08866 |
| -0.2 | -0.34 | 0.23 | -0.5 | EMC3 (ER membrane protein complex subunit 3) | DRSC02989 |
| -0.18 | 0.16 | -1.19 | -0.35 | CG14036 | DRSC02361 |
| -2.91 | 0.19 | -0.57 | 0.38 | ATPsynD (ATP synthase, subunit D) | DRSC14093 |
| 0.2 | 0 | -0.3 | 0.11 | CG17625 | DRSC15249 |
| 1 | 0.65 | -0.64 | -0.06 | Dbp45A (DEAD box protein 45A) | DRSC07395 |
| -0.25 | 0.26 | -0.6 | 1.08 | Send1 (Spermathecal endopeptidase 1) | DRSC00482 |
| -0.7 | -0.25 | 0.15 | -0.33 | cyst (cysts) | DRSC02023 |
| 1.29 | 0.56 | -0.48 | 0.01 | Inx5 (Innexin 5) | DRSC20051 |
| -1.52 | -2.64 | -3.54 | 0.42 | CG34175 | DRSC00424 |
| 0 | -2.54 | -1.1 | 0 | Arpc3B (Actin-related protein 2/3 complex, subunit 3B) | DRSC20126 |
| -0.49 | -0.2 | -0.6 | -0.06 | CG7448 (retired record) | DRSC11828 |
| -3.26 | 0.1 | 0.2 | 1.59 | CG7448 (retired record) | DRSC22485 |
| 0.11 | -0.03 | 0.46 | 0.36 | CG12682 | DRSC17873 |
| -0.75 | 0.07 | -0.13 | 0.9 | Gr10b (Gustatory receptor 10b) | DRSC19477 |
| -2.46 | 0.41 | -0.05 | 0.43 | nvd (neverland) | DRSC22139 |
| 0.98 | 0.01 | 0.31 | -0.76 | CG12853 | DRSC06193 |
| -0.85 | -0.5 | 0.1 | 0.86 | CG17239 | DRSC00492 |
| 1.09 | -0.89 | 0.95 | -0.21 | Lim3 | DRSC02475 |
| -1.3 | -0.24 | 0.14 | -2.76 | Lim3 | DRSC03363 |
| -0.26 | -0.25 | 0.61 | -2.42 | Lim3 | DRSC22183 |
| -1.19 | -2.2 | -0.21 | -1.13 | Lim3 | DRSC22650 |
| 0.68 | 0 | 2.85 | 0.4 | TwdlH (TweedleH) | DRSC14735 |
| 0.14 | -0.09 | 0.82 | -0.36 | CG13230 | DRSC06350 |
| -0.68 | -0.23 | 0 | -0.03 | Elp3 (Elongator complex protein 3) | DRSC00448 |
| 0.42 | 0.11 | 0.59 | -0.32 | CG8564 | DRSC10997 |
| 0.82 | 1.08 | 1.66 | 0.52 | CG7255 | DRSC10790 |
| 0.04 | -0.3 | 0.18 | 0.4 | Gpdh1 (Glycerol-3-phosphate dehydrogenase 1) | DRSC03336 |
| -0.72 | -1.21 | -1.22 | 1.05 | Gpdh1 (Glycerol-3-phosphate dehydrogenase 1) | DRSC21666 |
| -6.28 | -6.77 | -3.71 | -1.49 | Sos (Son of sevenless) | DRSC03439 |
| 0.06 | -0.33 | -0.57 | -0.32 | Polr1A (RNA polymerase I subunit A) | DRSC07535 |
| 0.73 | -0.58 | -0.41 | -0.34 | SIFa (SIFamide) | DRSC04480 |
| 0.4 | 0.1 | 1.16 | 0.13 | Cyt-c1L (Cytochrome c1-like) | DRSC14860 |
| -0.27 | 1.08 | -0.67 | 1.21 | Cyt-c1L (Cytochrome c1-like) | DRSC22096 |
| 0.87 | 0.47 | 1.05 | -0.29 | CG5062 | DRSC18385 |
| -0.74 | -0.14 | -0.23 | 0.06 | MME1 (Mitochondrial Magnesium Exporter 1) | DRSC02714 |
| -0.36 | -1.4 | -0.47 | 1.62 | RPA1 (Replication protein A1) | DRSC16830 |
| 0.17 | 0.34 | -0.45 | 0.93 | CG14187 | DRSC10186 |
| 0.13 | -0.13 | -0.15 | 0.43 | CG7706 | DRSC16295 |
| 0.07 | 0.23 | 0.4 | 0.56 | snRNA:U4atac (small nuclear RNA U4atac) | DRSC12055 |
| -0.74 | -0.23 | -0.46 | 0.44 | CG41099 | DRSC21049 |
| 0.14 | -0.07 | -1.02 | 0.28 | CG41099 | DRSC21051 |
| 0.58 | 0.22 | -0.51 | -0.53 | CG4572 | DRSC15603 |
| 1.44 | 0.77 | -1.26 | -4.06 | Cdk8 (Cyclin-dependent kinase 8) | DRSC11113 |
| -0.27 | 0.22 | -0.42 | 0.17 | CG7860 | DRSC20060 |
| -0.13 | 0.12 | -1.16 | -0.97 | CG8031 | DRSC16364 |
| 1.02 | -0.95 | -0.64 | 0.37 | Sr-CIV (Scavenger receptor class C, type IV) | DRSC00575 |
| 0.92 | 0.77 | -0.49 | 0.14 | CG3165 | DRSC00573 |
| 0.26 | 0.35 | 0.46 | 0.28 | Naa60 (N(alpha)-acetyltransferase 60) | DRSC10301 |
| -0.39 | 0.91 | 0.58 | -0.08 | Or42a (Odorant receptor 42a) | DRSC04912 |
| 0.04 | -0.01 | 0.57 | 0.05 | CG32107 | DRSC09221 |
| 0.54 | -0.16 | -0.15 | -0.06 | CG45067 | DRSC08414 |
| 0 | -0.47 | 0.91 | 0 | Rtca (RNA 3'-terminal phosphate cyclase) | DRSC18517 |
| -0.4 | 0.7 | 0.3 | 0.35 | CG17110 | DRSC15173 |
| 0.08 | 0.62 | -0.59 | 0.31 | sc (scute) | DRSC18830 |
| -0.37 | 0.47 | 0.93 | 0.27 | CG1317 | DRSC08305 |
| 0.26 | 0.36 | 1.15 | 0.05 | MFS3 (Major Facilitator Superfamily Transporter 3) | DRSC00664 |
| 0.99 | -0.36 | -0.66 | 0.05 | CG32147 | DRSC09346 |
| 1.03 | 1.15 | -1.07 | -1.84 | CG30430 | DRSC22260 |
| -0.08 | 0.42 | 1.71 | 0.09 | CG18048 | DRSC12573 |
| 0.05 | -0.38 | -1.55 | -1.74 | CG5969 | DRSC11789 |
| 0.56 | -0.17 | -0.05 | 0.42 | CG43121 | DRSC10457 |
| 1.41 | 0.3 | 0.77 | -0.4 | Syn2 (Syntrophin-like 2) | DRSC06902 |
| -0.29 | 0.82 | 1.83 | 1.11 | CG42394 + CG6567 | DRSC12821 |
| 0.13 | 0.48 | 0.34 | -0.81 | CG5388 | DRSC15789 |
| 0.84 | 0.31 | -1.07 | -0.25 | CG8028 | DRSC20075 |
| -0.17 | -0.01 | -1.29 | 0.61 | Ir11a (Ionotropic receptor 11a) | DRSC19699 |
| 0.63 | 0.04 | -0.17 | 2.96 | CG42726 + CG42727 | DRSC14485 |
| -0.36 | 0.86 | -1.02 | 0.63 | FLASH (FLICE-associated huge protein) | DRSC06872 |
| 0.77 | 0.45 | -0.44 | -0.88 | trc (tricornered) | DRSC11406 |
| 0.94 | -0.1 | -0.04 | -0.07 | CG18788 | DRSC02697 |
| -0.13 | 0.08 | – | 0.02 | betaTub65B (beta-Tubulin at 65B) | DRSC11393 |
| -0.66 | -0.16 | 1.53 | -0.58 | CG14764 | DRSC05072 |
| 0.06 | -1.42 | 0.3 | -0.08 | CG14764 | DRSC06498 |
| 0.21 | 0.68 | 0.84 | 0.39 | CG14764 | DRSC06844 |

Single entries from the list:
Gr10b (Gustatory receptor 10b) [DRSC19477], replicate 1, z-score of dpERK under basal conditions: -0.13
Under “replicate 1, z-score of dpERK under basal conditions”, CG42394 + CG6567 [DRSC12821] reads 1.83
Under “replicate 1, z-score of ERK-YFP with insulin”, CG7706 [DRSC16295] shows 0.43
betaTub65B (beta-Tubulin at 65B) [DRSC11393], replicate 2, z-score of dpERK with insulin → 0.08
Value for Send1 (Spermathecal endopeptidase 1) [DRSC00482] under “replicate 1, z-score of dpERK under basal conditions”: -0.6
Entry for EMC3 (ER membrane protein complex subunit 3) [DRSC02989] under “replicate 1, z-score of dpERK under basal conditions”: 0.23
